These results are taken from US20070086998A1.

Substitutions are numbered along the chain they refer to. No constants are given. Whether binding was seen depends on the method and setting.

B1: MS-GPC-8-27-10 (Fab) (Fab, V domains shown)
VH: QVQLKESGPALVKPTQTLTLTCTFSGFSLSTSGVGVGWIRQPPGKALEWLALIDWDDDKYYSTSLKTRLTISKDTSKNQVVLTMTNMDPVDTATYYCARSPRYRGAFDYWGQGTLVTVSS
VL: DIVLTQPPSVSGAPGQRVTISCSGSESNIGANYVNWYQQLPGTAPKLLIYDNNQRPSGVPDRFSGSKSGTSASLAITGLQSEDEADYYCQSYDMNVHVFGGGTKLTVLG
B2: MS-GPC-8-6-27 (Fab) (Fab, V domains shown)
VH: B1 VH
VL: B1 VL with E26D, N35T, M94Y, N95D, V96H, H97Y
B3: MS-GPC-8-6-47 (Fab) (Fab, V domains shown)
VH: B1 VH
VL: B1 VL with A31S, N35S, M94Y, N95D, V96H, H97Y
B4: MS-GPC-8-Fab (Fab, V domains shown)
VH: B1 VH
VL: B1 VL with E26S, A31S, N35S, N95P, V96Q, H97A
B5: MS-GPC-8-6-13 (Fab) (Fab, V domains shown)
VH: B1 VH
VL: B1 VL with N35T, M94Y, N95D, V96H, H97Y
B6: MS-GPC-8-10-57 (Fab) (Fab, V domains shown)
VH: B1 VH
VL: B1 VL with A31N, N35Q, M94L, N95I, V96R
B7: MS-GPC-8-27-41 (Fab) (Fab, V domains shown)
VH: B1 VH
VL: B1 VL with A31N, N35Q
B8: MS-GPC-8-27-7 (Fab) (Fab, V domains shown)
VH: B1 VH
VL: B1 VL with A31N, N35G
B9: MS-GPC-8-6 (Fab) (Fab, V domains shown)
VH: B1 VH
VL: B1 VL with E26S, A31S, N35S, M94Y, N95D, V96H, H97Y

This experiment deals with lysozyme. Description: ELISA, antigen 10 µg/well.
Turning to B1, the binding entry is “no binding (tested: 100 ng/well)”.

B2: the binding entry is “no binding (tested: 100 ng/well)”.

Take B3: the binding result is “no binding (tested: 100 ng/well)”.

For B4, the binding entry is on record as “no binding (tested: 100 ng/well)”.

For the molecule B5, the binding entry is on record as “no binding (tested: 100 ng/well)”.

For B6, the binding entry was “no binding (tested: 100 ng/well)”.

Regarding B7, the binding entry was “no binding (tested: 100 ng/well)”.

Turning to B8, the binding result is recorded as “no binding (tested: 100 ng/well)”.

On to B9, for which the binding entry is given as “no binding (tested: 100 ng/well)”.
